Source: PubChem BioAssay AID200 (DTP/NCI, 2004)
The list is a part of this screen's results and no random one: it gathers tests that were run many times, whatever their T/C, doses with no T/C, and many T/C values between a quarter and a half above the control. Other doses and runs of a compound stand elsewhere. T/C gives the treated animals as a percentage of the vehicle group. Some entries give survivors of the animals treated and no T/C: the source files T/C as zero there, which appears to mark a toxic dose or a test without result, not a measured value. Some doses without a T/C left all or most animals alive at the check, yet need not have been tolerated: survival well below the control is almost never listed, so the zero probably covers shortened survival too. Survivors were counted at the toxicity check, usually on the fifth day, unless a day is given; later deaths do not show. Schedules are NCI's codes, read here as Q, the interval in days (D) or hours (H), X, the number of doses. Some entries were tested several times; the values are given in rising order. For survival time, the PubChem record calls one and a half times the control and up active, and a quarter to a half above the control has no call in these data; cut-offs in other NCI protocols can differ. Some T/C values carry the count of animals alive at the toxicity check (mostly the fifth day); where none is given, no animal had died by that day. Counts like (3×) stand for listed records that agree.

Tested on: B6C3F1 mice, B16 melanoma ip, median survival T/C
Assay: NCI In Vivo Anticancer Drug Screen. Data for tumor model B16 Melanoma (intraperitoneal) in B6C3F1 mice
Conditions: T/C endpoint: median survival time, schedule: Q01DX009 (ip), higher T/C = longer survival
How it was run: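 Readout: survival or tumor size in treated mice relative to vehicle controls (T/C). Model uses transplantable tumors grown in mice.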

[1] = dose: 50.0 mg/kg/injection, vehicle: Klucel (hydroxypropylcellulose) (HPC)
[2] = dose: 100.0 mg/kg/injection, vehicle: Klucel (hydroxypropylcellulose) (HPC)
[3] = dose: 200.0 mg/kg/injection, vehicle: Klucel (hydroxypropylcellulose) (HPC)
[4] = dose: 12.5 mg/kg/injection, vehicle: saline
[5] = dose: 25.0 mg/kg/injection, vehicle: saline
[6] = dose: 50.0 mg/kg/injection, vehicle: saline
[7] = dose: 100.0 mg/kg/injection, vehicle: saline
[8] = dose: 200.0 mg/kg/injection, vehicle: saline
[9] = dose: 400.0 mg/kg/injection, vehicle: saline with Tween-80
[10] = dose: 400.0 mg/kg/injection, vehicle: saline
[11] = dose: 0.5 mg/kg/injection, vehicle: saline with Tween-80
[12] = dose: 12.5 mg/kg/injection, vehicle: saline with Tween-80
[13] = dose: 25.0 mg/kg/injection, vehicle: saline with Tween-80
[14] = dose: 50.0 mg/kg/injection, vehicle: saline with Tween-80
[15] = dose: 100.0 mg/kg/injection, vehicle: saline with Tween-80
[16] = dose: 6.25 mg/kg/injection, vehicle: water
[17] = dose: 25.0 mg/kg/injection, vehicle: water
[18] = dose: 25.0 mg/kg/injection, vehicle: Klucel (hydroxypropylcellulose) (HPC)
[19] = dose: 200.0 mg/kg/injection, vehicle: saline with Tween-80

In the case of `CCCOC(=O)c1nc(N(CC2CCCCC2)C(=O)NC)sc1/N=C/c1ccccc1`, the survivor count (dose: 72.0 mg/kg/injection, vehicle: saline with Tween-80) is reported as 10 of 10.
In the case of `COC(=O)Nc1cn2cc(C(=O)c3cccs3)ccc2n1`, the T/C (dose: 6.0 mg/kg/injection, vehicle: other) is reported as 142 % of control, the T/C (dose: 12.0 mg/kg/injection, vehicle: other) is reported as 127 % of control and the T/C (dose: 12.5 mg/kg/injection, vehicle: Klucel (hydroxypropylcellulose) (HPC)) is reported as 138 and 142 % of control. The T/C (dose: 25.0 mg/kg/injection, vehicle: other) was 127 % of control, the T/C [1] was 139 % of control and the T/C [2] was 133 % of control. The survivor count [2] was 9 of 10 and 10 of 10, the T/C (dose: 100.0 mg/kg/injection, vehicle: other) was 143 % of control and the survivor count [3] was 5 of 10 and 10 of 10. For the same compound, the survivor count (dose: 200.0 mg/kg/injection, vehicle: other) was 10 of 10.
`Oc1ccc(CCl)c2cccnc12` was tested, and the survivor count [4] was 10 of 10, the T/C [5] was 92, 98, 102, 105 % of control and the T/C [6] was 87, 90, 109, 119 % of control. The T/C [7] was 91 (2×) and 128 % of control [9 of 10 alive], the survivor count [7] was 10 of 10 and the survivor count [8] was 6 of 10, 8 of 10, 10 of 10.
In the case of `C[C@]12CC[C@H](O)CC1=CC[C@@H]1[C@@H]2CC[C@]2(C)C(=O)CC[C@@H]12`, the survivor count [9] is reported as 9 of 10.
With `COC(OC(CO)C(O)S(=O)(=O)O)C(O)S(=O)(=O)O` (configuration not stated) the T/C [6] was 133 % of control, the T/C [8] was 135 % of control and the survivor count [10] was 5 of 10.
With `COc1cc2c(c(OC)c1OC)-c1ccc(OC)c(=O)cc1[C@@H](NC(=O)CCl)CC2` the T/C (dose: 0.06 mg/kg/injection, vehicle: saline with Tween-80) was 144 % of control, the T/C [11] was 131 % of control [9 of 10 alive] and the survivor count (dose: 1.0 mg/kg/injection, vehicle: saline with Tween-80) was 6 of 10.
For `NC1(C(=O)O)CCCc2ccc(N(CCCl)CCCl)cc21` (configuration not stated), the T/C (dose: 5.0 mg/kg/injection, vehicle: saline) was 125 % of control, the T/C (dose: 20.0 mg/kg/injection, vehicle: saline with Tween-80) was 146 % of control and the survivor count (dose: 40.0 mg/kg/injection, vehicle: saline with Tween-80) was 9 of 10.
`[Cl][Pt+2][Cl].[NH-]CC1(C[NH-])CCC1` was tested, and the survivor count (dose: 6.25 mg/kg/injection, vehicle: suspension in saline) was 10 of 10.
`C[N+](C)(C)c1ncnc2nc[nH]c12` was tested, and the survivor count [8] was 7 of 10 and the survivor count [10] was 0 of 10.
`Cc1cc(N(CC(C)Br)CC(C)Br)ccc1N=Nc1ccccc1C(=O)O` (configuration not stated) was tested, and the survivor count (dose: 0.78 mg/kg/injection, vehicle: saline with Tween-80) was 6 of 10, the T/C (dose: 6.25 mg/kg/injection, vehicle: saline with Tween-80) was 143 % of control [9 of 10 alive] and the survivor count [12] was 6 of 10 and 10 of 10. For the same compound, the T/C [4] was 129 % of control, the survivor count [13] was 9 of 10 and the survivor count [14] was 8 of 10. For the same compound, the survivor count [15] was 0 of 10.
With `Nc1nc(/C=C(/O)c2ccccc2)c2ncn(C3OC(CO)C(O)C3O)c2n1` (configuration not stated) the survivor count (dose: 200.0 mg/kg/injection, vehicle: distilled water + Tween-80) was 5 of 10, the survivor count (dose: 400.0 mg/kg/injection, vehicle: distilled water + Tween-80) was 0 of 10 and the survivor count [10] was 4 of 10.
In the case of `CCN(CC)CCn1[nH]c2c3ccc(=O)cc3sc3c(NCCN)ccc1c32`, the T/C (dose: 3.12 mg/kg/injection, vehicle: water) is reported as 138 % of control, the T/C [16] is reported as 139 % of control and the survivor count (dose: 20.83 mg/kg/injection, vehicle: water) is reported as 10 of 10. For the same compound, the survivor count [17] was 9 of 10 and the survivor count (dose: 34.72 mg/kg/injection, vehicle: water) was 6 of 10.
`O=C(O)CSc1c(Cl)c(=O)oc2ccc(Cl)cc12` was tested, and the survivor count [3] was 8 of 10.
For `CNC(=O)OCc1c(COC(=O)NC)c(-c2ccc(F)cc2)n2c1CCC2`, the T/C (dose: 0.78 mg/kg/injection, vehicle: Klucel (hydroxypropylcellulose) (HPC)) was 144 % of control, the T/C (dose: 1.56 mg/kg/injection, vehicle: Klucel (hydroxypropylcellulose) (HPC)) was 131 % of control and the T/C (dose: 3.12 mg/kg/injection, vehicle: Klucel (hydroxypropylcellulose) (HPC)) was 137 % of control. For the same compound, the T/C (dose: 6.25 mg/kg/injection, vehicle: Klucel (hydroxypropylcellulose) (HPC)) was 146 % of control and the survivor count [18] was 10 of 10.
In the case of `C=C1[C@@H](O)[C@]2(O)OC[C@@]34[C@H]1[C@@H](OC(=O)C(C)CC)C(=O)O[C@@H]3C[C@H]1C(C)=CC(=O)[C@@H](O)[C@]1(C)[C@@H]24` (some centres not stated), the T/C [11] is reported as 146 % of control.
With `C=C1N(C)c2ccccc2C1(C)C` the survivor count [12] was 9 of 10, the survivor count [13] was 4 of 10 and 6 of 10 and the survivor count [14] was 2 of 10 and 9 of 10. The survivor count [15] was 0 of 10 and 4 of 10, the survivor count [19] was 0 of 10 and the survivor count [9] was 0 of 10.
`CC(=O)Oc1c(C)[nH]ccc1=O` was tested, and the survivor count [10] was 10 of 10 and the survivor count (dose: 800.0 mg/kg/injection, vehicle: saline) was 9 of 10.
In the case of `CC1OC2CC(=O)OC2C2=C1C(=O)c1cc(-c3cc(O)c4c(c3)C(=O)C3=C(C4=O)C4OC(=O)CC4OC3C)cc(O)c1C2=O` (configuration not stated), the survivor count (dose: 1.0 mg/kg/injection, vehicle: other) is reported as 10 of 10, the survivor count (dose: 2.0 mg/kg/injection, vehicle: other) is reported as 10 of 10 and the survivor count (dose: 4.0 mg/kg/injection, vehicle: other) is reported as 10 of 10.
For `CCCCC(NC(=O)C(F)(F)F)C(=O)O` (configuration not stated), the survivor count [15] was 10 of 10, the survivor count [19] was 10 of 10 and the survivor count [9] was 10 of 10.
For `COc1ccc2c(c1)-c1nn(CCCN(C)C)c3ccc([N+](=O)[O-])c(c13)N2`, the T/C [16] was 128 and 129 % of control, the T/C (dose: 12.5 mg/kg/injection, vehicle: water) was 133 [9 of 10 alive] and 135 % of control and the survivor count [17] was 10 of 10.
With `CC1(C)N=C(N)N=C(N)N1c1ccc(F)c(C(F)(F)F)c1` the T/C [5] was 125 % of control, the survivor count [6] was 10 of 10 and the survivor count [7] was 3 of 10.
With `Cn1c2ccccc2c2ccc3c(c21)C(=O)C=CC3=O` the survivor count [18] was 10 of 10, the survivor count [1] was 5 of 10 and the survivor count [2] was 0 of 10.
In the case of `C/C=C1\C(=O)O[C@@]23C=C[C@H]4C(C(=O)OC)=CO[C@@H](O[C@H]12)[C@H]43`, the survivor count (dose: 30.0 mg/kg/injection, vehicle: Klucel (hydroxypropylcellulose) (HPC)) is reported as 9 of 10.
For `CC1=C(CC/C(C)=C/CCC2=CCC(C3=CC(=O)OC3O)OC2O)C(C)(C)CCC1` (configuration not stated), the survivor count (dose: 12.0 mg/kg/injection, vehicle: Klucel (hydroxypropylcellulose) (HPC)) was 10 of 10.
